According to patent publication US12590134B2 (Sinopep-Allsino Biopharmaceutical Co., Ltd., priority 2020, dated 2026):

Assay: general procedure: Fmoc solid-phase peptide synthesis; Fmoc-Gly-Wang resin
Conditions: whole synthesis, 214 nm

In the case of “HX2EGTFTSDVSSYLEX2QAAK(HOOC-(CH2)16-CO-γ-Glu-AEEA-AEEA)EFIAWLVRGRG”, the “final HPLC purity” value is reported as “larger than 98.0%”.
